{"source": "PubChem BioAssay AID1259285 (Sanger Institute, 2017)", "aim": "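Search of the kinome for kinases worth combining with drugs in colon cancer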 (primary screen)", "cells": "human HCC56 colorectal cancer cells", "knock-down reagent": "siRNA pool against human genes", "challenge": "DMSO vehicle, or anchor drug BYL719 at 1 µM, cetuximab at 5 µg/ml, or trametinib at 10 nM", "read-out": "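Viability as a ratio to non-targeting pool wells, averaged over replicates and turned into a robust z-score; synergy scores with BYL719, cetuximab or trametinib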", "scale": "viability robust z-score, no drug: higher = more viable cells, weaker knock-down effect", "rule for the call": "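a knock-down counts as essential if its viability z-score without drug is under -3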", "calls": "active = essential without drug; inactive = no change without drug", "note": "This is a random part of 794 reagents tested. 20 of them (2.5%) count as active. 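Calls rest on the drug-free arm alone and ignore synergy scores; viability ratios seem to be capped at 1.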 Not all columns of the deposit are shown. Not stated in the record: the amount of reagent, the time to read-out."}
{"gene symbol":"NTRK3 (neurotrophic receptor tyrosine kinase 3)","viability robust z-score, no drug":0.458,"Call":"inactive"}
{"gene symbol":"STK10 (serine/threonine kinase 10)","viability robust z-score, no drug":-1.1,"Call":"inactive"}
{"gene symbol":"TBCK (TBC1 domain containing kinase)","viability robust z-score, no drug":0.458,"Call":"inactive"}
{"gene symbol":"STK33 (serine/threonine kinase 33)","viability robust z-score, no drug":0.458,"Call":"inactive"}
{"gene symbol":"PNKP (polynucleotide kinase 3'-phosphatase)","viability robust z-score, no drug":-0.509,"Call":"inactive"}
{"gene symbol":"TSSK3 (testis specific serine kinase 3)","viability robust z-score, no drug":0.458,"Call":"inactive"}
{"gene symbol":"RIPK2 (receptor interacting serine/threonine kinase 2)","viability robust z-score, no drug":0.458,"Call":"inactive"}
{"gene symbol":"PI4KB (phosphatidylinositol 4-kinase beta)","viability robust z-score, no drug":0.458,"Call":"inactive"}
{"gene symbol":"MOS (MOS proto-oncogene, serine/threonine kinase)","viability robust z-score, no drug":0.458,"Call":"inactive"}
{"gene symbol":"GNAS (GNAS complex locus)","viability robust z-score, no drug":-2.5,"Call":"inactive"}
{"gene symbol":"FCSK (fucose kinase)","viability robust z-score, no drug":0.458,"Call":"inactive"}
{"gene symbol":"TNK2 (tyrosine kinase non receptor 2)","viability robust z-score, no drug":0.458,"Call":"inactive"}
